Data taken from PubChem BioAssay AID1671190 (National Center for Advancing Translational Sciences (NCATS), 2021).
Where “and” joins values, the source holds several entries; their conditions need not be identical. Identical values can stand only once. In all, about 580,000 compounds went through this assay and about 6,100 (1.1%) were called active. This list was built around the results that the source calls inconclusive (neither active nor inactive); the mix of calls is not that of the screen. Calls come from the whole dose curve; as a rule, active = well fitted inhibition curve with a large enough effect; inconclusive = small, poorly fitted or top-dose-only effect, or another doubt; inactive = no such curve, though single readings can be large or run the other way. Potencies of inconclusive entries are doubtful fits and often do not repeat.

Chains of the proteins cited; added tags and fusions are not shown. Lines headed by an entry give the natural chain unless they say otherwise; changes in a name come on top.
UniProt P18054: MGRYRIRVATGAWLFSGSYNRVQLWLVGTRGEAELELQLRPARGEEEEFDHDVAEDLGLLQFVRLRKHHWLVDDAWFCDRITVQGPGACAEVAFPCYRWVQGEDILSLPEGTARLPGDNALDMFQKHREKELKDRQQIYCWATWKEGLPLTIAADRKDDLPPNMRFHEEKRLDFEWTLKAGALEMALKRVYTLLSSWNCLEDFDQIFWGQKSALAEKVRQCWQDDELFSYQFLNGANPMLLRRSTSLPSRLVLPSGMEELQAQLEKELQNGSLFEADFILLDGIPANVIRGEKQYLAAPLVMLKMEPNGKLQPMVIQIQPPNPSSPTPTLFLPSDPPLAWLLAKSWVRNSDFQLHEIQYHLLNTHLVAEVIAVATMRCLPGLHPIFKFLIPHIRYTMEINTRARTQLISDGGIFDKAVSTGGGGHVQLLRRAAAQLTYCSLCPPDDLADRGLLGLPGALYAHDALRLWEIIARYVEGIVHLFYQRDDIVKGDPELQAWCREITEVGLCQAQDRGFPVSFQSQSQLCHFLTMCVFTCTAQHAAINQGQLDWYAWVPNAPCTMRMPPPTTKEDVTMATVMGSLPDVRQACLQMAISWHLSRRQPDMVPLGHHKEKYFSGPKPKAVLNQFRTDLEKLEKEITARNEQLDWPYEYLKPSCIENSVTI

target: Polyunsaturated fatty acid lipoxygenase ALOX12 (Homo sapiens) (UniProt P18054); experiment: Primary qHTS assay for inhibitors of human arachidonate 12S-lipoxygenase (ALOX12): Round 2; conditions: purified 12hLO, xylenol orange hydroperoxide absorbance; activity change, negative = inhibition: at 108 µM (top of the series)
Summary of the method: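 Purified human 12hLO (150 nM final) in 25 mM Hepes, 0.01% Triton X-100, pH 7.0 was preincubated 15 min at room temperature with compound. Then 40 uM arachidonic acid was added, 30 min. Hydroperoxide was read by Fe-XO absorbance ratio 573/405 nm.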
% is set by controls: 0 for no effect and ±100 for the full control effect; potency is the fitted concentration of half-maximal effect.

SMILES | Potency | activity change, negative = inhibition
CCOc1cc2c(cc1OCC)-n1cccc1C(c1ccc(OC)c(OC)c1)NC2 (stereo not drawn) | inconclusive: 44.7 µM [inhibitor, partial curve, poor fit] | –
CN(C)c1ccc(CN2CCC3(CC2)C(=O)Nc2ccccc23)cc1 | – | inactive: 6.94% [at 6.33 µM]
COCC(=O)NC[C@H]1C[C@@H]2CCN1C[C@@H]2c1cc(-c2ccc3ccccc3c2)nn1C | – | inactive: 121% [at 176 µM]
C=CC[C@]1(O)CC[C@H]2[C@@H]3CCC4=CC(=O)CCC4=C3C=C[C@@]21C | inconclusive: 10.2 µM [inhibitor, partial curve, poor fit] | –
CC/C(=N\Nc1ccccc1)c1c(O)n(-c2ccc(OC)cc2)c(=O)[nH]c1=O | – | inactive: 0%
CCOC(=O)c1ccc(N2C(=O)CC(N3CC=C(c4ccc(F)cc4)CC3)C2=O)cc1 (stereo not drawn) | inconclusive: 31.6 µM [inhibitor, single point] | –
O=C(c1cccs1)N1C[C@@H]2C[C@H](C1)c1c(-c3ccc(Cl)cc3)ccc(=O)n1C2 | – | inactive: 1.23% [at 176 µM]
Cc1ccc(-n2c(O)c(/C=C/C=Nc3ccccc3)c(=O)[nH]c2=O)cc1 | inconclusive: 25.1 µM [inhibitor, partial curve, poor fit] | –
Cc1cccc(C)c1-n1nnnc1C(c1cccs1)N1CCC(n2c(=O)[nH]c3ccccc32)CC1 (stereo not drawn) | – | inactive: 7.72%
S=C1Nc2ccccc2Sc2ccccc21 | inconclusive: 56.2 µM [inhibitor, partial curve, poor fit] | –
COc1cc2c(cc1Oc1cccc(N(C)C)c1)NC(=O)C21CCN(c2ncccn2)CC1 | – | inactive: 2.7%
COc1ccc(NC(=O)CCc2nc(C3=CCN(Cc4cccc(Cl)c4)CC3)no2)cc1OC | inconclusive: 126 µM [inhibitor, partial curve, poor fit] | –
COC(=O)[C@H]1[C@H](CO)[C@H]2Cn3c(cccc3=O)[C@@H]1N2CC1CCCCC1 | inconclusive: 44.7 µM [inhibitor, partial curve, poor fit] | –
O=C1CC(=O)N(Cc2ccccc2)C(=O)N1 | inconclusive: 79.4 µM [inhibitor, partial curve, poor fit] | –
CS(=O)(=O)c1ccc(C(=O)C2C(=O)CCCC2=O)c([N+](=O)[O-])c1 | inconclusive: 10.6 µM [inhibitor, partial curve, poor fit] | –
O=C(c1ccc(Cl)cc1)C1CCCN(Cc2ccc3ncccc3c2)C1 (stereo not drawn) | – | inactive: 12.8%
O=C(COC(=O)CCc1nc2ccccc2s1)Nc1ccc(Cl)cc1C(=O)c1ccccc1 | inconclusive: 100 µM [inhibitor, partial curve, poor fit] | –
Cn1cc(CN[C@@H]2C[C@H](CO)[C@@H](O)[C@H]2O)c2ccccc21 | inconclusive: 39.8 µM [inhibitor, partial curve] | –
Cc1ccc(N2C(=O)NC(=O)/C(=C/c3cnn(-c4ccc(C)cc4)c3)C2=O)cc1 | – | inactive: -24.5%
Clc1ccc(Cl)c(-c2ccc(CNC3CN4CCC3CC4)o2)c1 (stereo not drawn) | active: 8.91 µM | –
N#CC1c2ccccc2-n2nncc2CN1C(=O)c1ccc([N+](=O)[O-])o1 (stereo not drawn) | inconclusive: 79.4 µM [inhibitor, single point] | –

SMILES | Potency | activity change, negative = inhibition
CCc1ccc(C(=O)N2CCC3(CC2)c2nccn2-c2ccccc2CN3C)cc1 | – | inactive: 34.8%
Nc1ncnc2c1ncn2[C@@H]1O[C@H](COP(=O)(O)CP(=O)(O)O)[C@@H](O)[C@H]1O | inconclusive: 11.2 µM [inhibitor, full curve] | –
C(=NN1CCCCCC1)c1c[nH]c2ccccc12 | inconclusive: 63.1 µM [inhibitor, partial curve, poor fit] | –
CCOC(=O)C1(CCCc2ccccc2)CCN(C2CCC2)CC1 | inconclusive: 70.8 µM [inhibitor, single point] | –
CCOC(=O)c1c(/N=C/c2c(O)n(-c3ccccc3F)c(=S)[nH]c2=O)sc2c1CCCC2 | inconclusive: 28.2 µM [inhibitor, partial curve, poor fit] | –
COC(=O)C1=C(c2ccc(F)cc2OCc2ccccc2)C[C@@H]2CC[C@H]1N2C(=O)NCc1ccccc1Br | – | inactive: 5.17%
COc1ccc(CN2CCN(c3ccccc3F)CC2)cc1O | inconclusive: 0.501 µM [inhibitor, full curve, poor fit] | –
CCc1ccc(N2C(=O)NC(=O)C3(Cc4cc(C)ccc4N(C)C3)C2=O)cc1 (stereo not drawn) | inconclusive: 22.4 µM [inhibitor, partial curve, poor fit] | –
CNCCc1ccc(O)c(O)c1 | inactive and inconclusive: 31.6 µM [inhibitor, single point] and inconclusive: 3.98 µM [inhibitor, full curve, poor fit] | –
C=CCn1c(O)c(C(CC)=NC(C)c2ccccc2)c(=O)[nH]c1=O (stereo not drawn) | – | inactive: -2.26%
COc1ccc(-c2cc3ccc(OC(=O)N(C)C)cc3oc2=O)cc1 | inconclusive: 0.0891 µM [inhibitor, full curve, poor fit] | –
CC(=O)Nc1ccc(S(=O)(=O)N2Cc3ccccc3-n3nncc3C2)cc1 | – | inactive: 40.3%
COc1cccc(-n2c(/C=C/c3ccccn3)nc3ccccc3c2=O)c1 | – | inactive: -23%
COC(=O)C1=C(c2ccc(-c3ccccc3)c(F)c2)C[C@@H]2CC[C@H]1N2C(=O)N1CCCC1 | inconclusive: 112 µM [inhibitor, single point] | –
O=C(NC(Oc1ccccc1)C(Cl)(Cl)Cl)c1ccccc1 (stereo not drawn) | – | inconclusive: -40.5% [inhibitor]
OC(c1cccc(Cl)c1)(c1cccc(Cl)c1)C1CN2CCC1CC2 (stereo not drawn) | – | inactive: -11.8%
NCC(=O)c1ccc(Cl)c(Cl)c1 | inconclusive: 14.1 µM [inhibitor, full curve, poor fit] | –
COc1ccc(/C=C/[N+](=O)[O-])cc1OC | inconclusive: 39.8 µM [inhibitor, partial curve, poor fit] | –
N#Cc1ccc(NC(=O)CCC2CCCC2)cc1Cl | inconclusive: 31.6 µM [inhibitor, partial curve, poor fit] | –
CCN1C[C@]2(COC(=O)c3ccccc3N3C(=O)C[C@H](C)C3=O)CC[C@H](OC)[C@@]34[C@@H]5C[C@H]6[C@H](OC)[C@H]5[C@](O)(C[C@@H]6OC)[C@@](O)([C@@H](OC)[C@@H]23)[C@@H]14 | inconclusive: 1 µM [inhibitor, full curve, poor fit] | –
O=[S+]1([O-])NC2(CCN(Cc3ccncc3)C2)COc2ccncc21 (stereo not drawn) | – | inactive: 7.99% [at 6.33 µM]

SMILES | Potency | activity change, negative = inhibition
Cc1nc(-c2ccccc2Br)cc([C@H]2CN3CC[C@H]2C[C@@H]3CNC(=O)NC2CCCCC2)n1 | inconclusive: 31.6 µM [inhibitor, full curve, poor fit] | –
O=C(Cn1ncc2c3ccccc3n(Cc3cccc(Cl)c3)c2c1=O)N1CCC2(CC1)OCCO2 | inconclusive: 25.1 µM [inhibitor, single point] | –
O=c1cccc2n1CC1CC2CN(Cc2c(F)cccc2Cl)C1 (stereo not drawn) | inconclusive: 7.08 µM [inhibitor, full curve, poor fit] | –
CN(C)c1ccc(C2CC2N)cc1 (stereo not drawn) | inconclusive: 50.1 µM [inhibitor, partial curve, poor fit] | –
Cc1c(Cl)cccc1N1C(=O)NC(=O)/C(=C\c2cc(C)n(-c3cccc(C(=O)O)c3C)c2C)C1=O | inconclusive: 10 µM [inhibitor, full curve, poor fit] | –
CCc1noc(C(C)N2CCN(C(=O)Cc3ccc(C)cc3)CC2)n1 (stereo not drawn) | inconclusive: 63.1 µM [inhibitor, partial curve, poor fit] | –
O=C(COc1ccc(Cl)cc1Cl)N1CCN(C/C=C/c2ccccc2)CC1 | inconclusive: 50.1 µM [inhibitor, partial curve, poor fit] | –
Cc1ccc(-n2nc(C)c3c2NC(=O)CSC3c2ccc(O)cc2)cc1Cl (stereo not drawn) | inconclusive: 50.1 µM [inhibitor, partial curve, poor fit] | –
CCN1CCN(c2ccc(Cl)nn2)C(=O)C1 | – | inactive: 18.7% [at 176 µM]
COc1c(/C=C2/C(=O)NC(=O)N(C)C2=O)c(CCN(C)C(=O)c2ccccc2)cc2c1OCO2 | – | inactive: 31.9%
Fc1ccc(CCNCc2ccc(Br)cc2)cc1 | inconclusive: 39.8 µM [inhibitor, partial curve] | –
Cn1c(O)c(C=Nc2cccc(C(F)(F)F)c2)c(=O)n(C)c1=O | inconclusive: 35.5 µM [inhibitor, single point] | –
COc1ccc(C(=O)C2CCCN(Cc3ccon3)C2)c(OC)c1 (stereo not drawn) | – | inactive: 2.29%
O=C(C1CCC1)N1[C@H]2CC[C@@H]1c1cnc(-c3ccc(F)cc3)nc1C2 | – | inactive: 29.6%
CC(=O)c1ccc(NC(=O)NC[C@H]2C[C@@H]3CCN2C[C@@H]3CN(C)Cc2ccccc2)cc1 | inconclusive: 100 µM [inhibitor, partial curve] | –
O=C1CNC(c2ccccc2Cl)c2cc(Br)ccc2N1 (stereo not drawn) | inconclusive: 158 µM [inhibitor, partial curve, poor fit] | –
Cc1ccccc1CN1CCCN(Cc2ccc(Cl)cc2)S1(=O)=O | inconclusive: 126 µM [inhibitor, single point] | –
COc1cc(Br)cc(CN2CCN(C)CC2)c1O | inconclusive: 89.1 µM [inhibitor, single point] | –
Cc1ccc(OP2(=O)Nc3cc(C)c(C)cc3S2)cc1 (stereo not drawn) | active: 20 µM | –
CCC(C)c1ccc(N2C(=O)NC(=O)/C(=C/c3cccn3CCOc3ccc(C)cc3)C2=O)cc1 (stereo not drawn) | inconclusive: 50.1 µM [inhibitor, partial curve, poor fit] | –
CN(C)C(=O)Oc1ccc2cc(-c3ccccc3)c(=O)oc2c1 | inconclusive: 44.7 µM [inhibitor, partial curve, poor fit] | –
